# Source: the supplement of paper PMC4635364
# Where a name gives a salt, the structure may show the parent alone. The list shows a part of the results. Single values are uncertain here, since repeats match poorly.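 Cells: ReNCell VM human fetal ventral-midbrain neural progenitors, differentiated mitogen-free. Blinded raters compared doublecortin-stained (early neurons) or tyrosine hydroxylase-stained (dopaminergic neurons) images with untreated wells, where 0 means no change. After repeats and both raters were averaged, compounds scoring 2 or above became hits for retesting.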
# Key:
# ReNCell VM [1] = assay: neuronal differentiation score (DCX+ cell fraction vs untreated, manual image score) (score (-3 to 3)); higher = more neuronal differentiation; conditions: 2 uM, 2 weeks
# ReNCell VM [2] = assay: dopaminergic neuron differentiation score (TH+ cell fraction vs untreated, manual image score) (score (0 to 3)); higher = more TH+ dopaminergic neuron differentiation; conditions: 2 uM, 4 weeks, BDNF 10 ng/ml + GDNF 10 ng/ml
smiles,measurement,setting,value
CCCCC1C(=O)N(c2ccccc2)N(c2ccc(O)cc2)C1=O (configuration not stated),neuronal differentiation score,ReNCell VM [1]; library: Spectrum,inactive: 0
same,dopaminergic neuron differentiation score,ReNCell VM [2]; library: Spectrum,inactive: 0
O=c1[nH]ccc2c(S(=O)(=O)N3CCCNCC3)cccc12 [HA 1100 hydrochloride],neuronal differentiation score,ReNCell VM [1]; library: Tocriscreen,inactive: 0
same,dopaminergic neuron differentiation score,ReNCell VM [2]; library: Tocriscreen,inactive: 0
Nc1nc(N)c2nc(CNc3ccc(C(=O)N[C@@H](CCC(=O)O)C(=O)O)cc3)cnc2n1 [Aminopterin],neuronal differentiation score,ReNCell VM [1]; library: LOPAC,inactive: 0
same,dopaminergic neuron differentiation score,ReNCell VM [2]; library: LOPAC,inactive: 0
CC(C)(C)NCC(O)c1ccc(O)c(CO)c1 (configuration not stated),neuronal differentiation score,ReNCell VM [1]; library: Spectrum,inactive: 0
same,dopaminergic neuron differentiation score,ReNCell VM [2]; library: Spectrum,inactive: 0
CNC(=O)[C@H]1O[C@@H](n2cnc3c(NCc4cccc(I)c4)nc(Cl)nc32)[C@H](O)[C@@H]1O [Chloro-IB-MECA],neuronal differentiation score,ReNCell VM [1]; library: LOPAC,inactive: -1
same,dopaminergic neuron differentiation score,ReNCell VM [2]; library: LOPAC,inactive: 0
CN(N=O)C(=O)N[C@H]1C(O)O[C@H](CO)[C@@H](O)[C@@H]1O (mixture of isomers),neuronal differentiation score,ReNCell VM [1]; library: Spectrum,inactive: 1
same,dopaminergic neuron differentiation score,ReNCell VM [2]; library: Spectrum,inactive: 0
C1CCC(C(CC2CCCCN2)C2CCCCC2)CC1 (configuration not stated) [Perhexiline maleate],neuronal differentiation score,ReNCell VM [1]; library: Prestwick,inactive: 0
same,dopaminergic neuron differentiation score,ReNCell VM [2]; library: Prestwick,inactive: 0
O=C1C=C2CC3(O)COc4c(ccc(O)c4O)C3=C2C=C1O (configuration not stated),neuronal differentiation score,ReNCell VM [1]; library: Spectrum,inactive: 0
same,dopaminergic neuron differentiation score,ReNCell VM [2]; library: Spectrum,inactive: 0
CC(C)CCC[C@@H](C)[C@H]1CC[C@H]2[C@@H]3CC=C4C[C@@H](O)CC[C@]4(C)[C@H]3CC[C@]12C,neuronal differentiation score,ReNCell VM [1]; library: Spectrum,inactive: 0
same,dopaminergic neuron differentiation score,ReNCell VM [2]; library: Spectrum,inactive: 0
CC(=O)[C@@]12O[C@](C)(c3ccccc3)O[C@@H]1C[C@H]1[C@@H]3CCC4=CC(=O)CC[C@]4(C)[C@H]3CC[C@@]12C,neuronal differentiation score,ReNCell VM [1]; library: Spectrum,inactive: 0
same,dopaminergic neuron differentiation score,ReNCell VM [2]; library: Spectrum,inactive: 0
CC(C)Cn1cnc2c(N)nc3ccccc3c21,neuronal differentiation score,ReNCell VM [1]; library: Spectrum,inactive: 0
same,dopaminergic neuron differentiation score,ReNCell VM [2]; library: Spectrum,inactive: 0
CC(=O)O[C@@H]1C[C@@]23C[C@@]24CC[C@H](O[C@@H]2OC[C@@H](O)[C@H](O)[C@H]2O)C(C)(C)[C@@H]4CC[C@H]3[C@]2(C)C[C@@H]3O[C@]4(C[C@@H](C)[C@@H]3[C@@]12C)O[C@H](O)[C@@]1(C)O[C@@H]41,neuronal differentiation score,ReNCell VM [1]; library: Spectrum,inactive: 0
same,dopaminergic neuron differentiation score,ReNCell VM [2]; library: Spectrum,inactive: 1
Cc1c(C(=O)NN2CCCCC2)nn(-c2ccc(Cl)cc2Cl)c1-c1ccc(I)cc1,neuronal differentiation score,ReNCell VM [1]; library: Tocriscreen,inactive: 0
same,dopaminergic neuron differentiation score,ReNCell VM [2]; library: Tocriscreen,inactive: 0
Cc1nc(Nc2ncc(C(=O)Nc3c(C)cccc3Cl)s2)cc(N2CCN(CCO)CC2)n1,neuronal differentiation score,ReNCell VM [1]; library: Spectrum,inactive: 0
same,dopaminergic neuron differentiation score,ReNCell VM [2]; library: Spectrum,inactive: 0
Nc1ncnc2c1ncn2C1CCCC1 [9-cyclopentyladenine],neuronal differentiation score,ReNCell VM [1]; library: LOPAC,inactive: 0
same,dopaminergic neuron differentiation score,ReNCell VM [2]; library: LOPAC,inactive: 0
Cc1nc(N=Nc2ccc(S(=O)(=O)O)cc2S(=O)(=O)O)c(COP(=O)(O)O)c(C=O)c1O,neuronal differentiation score,ReNCell VM [1]; library: LOPAC,inactive: 1
same,dopaminergic neuron differentiation score,ReNCell VM [2]; library: LOPAC,inactive: 0
C=C/C(C)=C/[C@@]1(C)SC(=O)C(C)=C1O [Thiolactomycin],neuronal differentiation score,ReNCell VM [1]; library: LOPAC,inactive: 0
same,dopaminergic neuron differentiation score,ReNCell VM [2]; library: LOPAC,inactive: 0
CCS(=O)(=O)N(C)[C@H]1c2cc(C#N)ccc2OC(C)(C)[C@@H]1O (racemic) [Chromanol 293B],neuronal differentiation score,ReNCell VM [1]; library: Tocriscreen,inactive: 0
same,dopaminergic neuron differentiation score,ReNCell VM [2]; library: Tocriscreen,inactive: 0
CCOC(=O)NNc1nncc2ccccc12 [Todralazine hydrochloride],neuronal differentiation score,ReNCell VM [1]; library: Prestwick,inactive: 0
same,dopaminergic neuron differentiation score,ReNCell VM [2]; library: Prestwick,inactive: 0
C[C@H](CCC(=O)NCC(=O)O)[C@H]1CC[C@H]2[C@@H]3[C@H](O)C[C@@H]4C[C@H](O)CC[C@]4(C)[C@H]3C[C@H](O)[C@]12C,neuronal differentiation score,ReNCell VM [1]; library: Spectrum,inactive: 0
same,dopaminergic neuron differentiation score,ReNCell VM [2]; library: Spectrum,inactive: 0
O=c1cc(-c2ccccc2)oc2cc(O)ccc12,neuronal differentiation score,ReNCell VM [1]; library: Spectrum,inactive: 0
same,dopaminergic neuron differentiation score,ReNCell VM [2]; library: Spectrum,inactive: 0
COc1ccc(OC)c(C(O)CNC(=O)CN)c1 (configuration not stated) [Midodrine hydrochloride],neuronal differentiation score,ReNCell VM [1]; library: Prestwick,inactive: 0
same,dopaminergic neuron differentiation score,ReNCell VM [2]; library: Prestwick,inactive: 0
C[C@](N)(Cc1ccc(O)c(O)c1)C(=O)O [L-alpha-Methyl DOPA],neuronal differentiation score,ReNCell VM [1]; library: LOPAC,inactive: 0
same,dopaminergic neuron differentiation score,ReNCell VM [2]; library: LOPAC,inactive: 0
CN1CCCN(C(c2ccccc2)c2ccc(Cl)cc2)CC1 (configuration not stated) [Homochlorcyclizine dihydrochloride],neuronal differentiation score,ReNCell VM [1]; library: Prestwick,inactive: 0
same,dopaminergic neuron differentiation score,ReNCell VM [2]; library: Prestwick,inactive: 0
COc1cc2c(CCNC(C)=O)c[nH]c2cc1O [6-Hydroxymelatonin],neuronal differentiation score,ReNCell VM [1]; library: LOPAC,inactive: 0
same,dopaminergic neuron differentiation score,ReNCell VM [2]; library: LOPAC,inactive: 0
CNC1CCc2cc(OC)c(OC)c(OC)c2-c2ccc(O)c(=O)cc21 (configuration not stated) [demecolceine],neuronal differentiation score,ReNCell VM [1]; library: Natural,inactive: 0
same,dopaminergic neuron differentiation score,ReNCell VM [2]; library: Natural,inactive: 0

# For convenience, part of the list above.
smiles,measurement,setting,value
CC(=O)[C@@]12O[C@](C)(c3ccccc3)O[C@@H]1C[C@H]1[C@@H]3CCC4=CC(=O)CC[C@]4(C)[C@H]3CC[C@@]12C,dopaminergic neuron differentiation score,ReNCell VM [2]; library: Spectrum,inactive: 0
CC(C)Cn1cnc2c(N)nc3ccccc3c21,neuronal differentiation score,ReNCell VM [1]; library: Spectrum,inactive: 0
same,dopaminergic neuron differentiation score,ReNCell VM [2]; library: Spectrum,inactive: 0
CC(=O)O[C@@H]1C[C@@]23C[C@@]24CC[C@H](O[C@@H]2OC[C@@H](O)[C@H](O)[C@H]2O)C(C)(C)[C@@H]4CC[C@H]3[C@]2(C)C[C@@H]3O[C@]4(C[C@@H](C)[C@@H]3[C@@]12C)O[C@H](O)[C@@]1(C)O[C@@H]41,neuronal differentiation score,ReNCell VM [1]; library: Spectrum,inactive: 0
